From the supplement of paper PMC12819154, “High-throughput peptide-centric local stability assay extends protein–ligand identification to membrane proteins, tissues and bacteria” (Nature Structural & Molecular Biology, 2025)
Some of the results follow. Most entries show no effect beyond the scatter of the controls.

The chains behind the UniProt entries cited, without tags or fusion partners. Where a name states a change or a piece, a line headed by the entry shows the natural chain unless it says otherwise.
UniProt Q5TC12: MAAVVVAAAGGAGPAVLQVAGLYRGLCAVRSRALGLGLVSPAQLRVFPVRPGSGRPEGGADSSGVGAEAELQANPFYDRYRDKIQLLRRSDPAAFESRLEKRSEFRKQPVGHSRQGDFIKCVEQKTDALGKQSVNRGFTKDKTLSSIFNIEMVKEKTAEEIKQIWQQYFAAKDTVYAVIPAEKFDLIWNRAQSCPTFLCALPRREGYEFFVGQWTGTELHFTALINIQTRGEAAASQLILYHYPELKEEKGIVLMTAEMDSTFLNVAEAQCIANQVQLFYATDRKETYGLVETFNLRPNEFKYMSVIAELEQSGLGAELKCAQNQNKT
UniProt Q5FWF5: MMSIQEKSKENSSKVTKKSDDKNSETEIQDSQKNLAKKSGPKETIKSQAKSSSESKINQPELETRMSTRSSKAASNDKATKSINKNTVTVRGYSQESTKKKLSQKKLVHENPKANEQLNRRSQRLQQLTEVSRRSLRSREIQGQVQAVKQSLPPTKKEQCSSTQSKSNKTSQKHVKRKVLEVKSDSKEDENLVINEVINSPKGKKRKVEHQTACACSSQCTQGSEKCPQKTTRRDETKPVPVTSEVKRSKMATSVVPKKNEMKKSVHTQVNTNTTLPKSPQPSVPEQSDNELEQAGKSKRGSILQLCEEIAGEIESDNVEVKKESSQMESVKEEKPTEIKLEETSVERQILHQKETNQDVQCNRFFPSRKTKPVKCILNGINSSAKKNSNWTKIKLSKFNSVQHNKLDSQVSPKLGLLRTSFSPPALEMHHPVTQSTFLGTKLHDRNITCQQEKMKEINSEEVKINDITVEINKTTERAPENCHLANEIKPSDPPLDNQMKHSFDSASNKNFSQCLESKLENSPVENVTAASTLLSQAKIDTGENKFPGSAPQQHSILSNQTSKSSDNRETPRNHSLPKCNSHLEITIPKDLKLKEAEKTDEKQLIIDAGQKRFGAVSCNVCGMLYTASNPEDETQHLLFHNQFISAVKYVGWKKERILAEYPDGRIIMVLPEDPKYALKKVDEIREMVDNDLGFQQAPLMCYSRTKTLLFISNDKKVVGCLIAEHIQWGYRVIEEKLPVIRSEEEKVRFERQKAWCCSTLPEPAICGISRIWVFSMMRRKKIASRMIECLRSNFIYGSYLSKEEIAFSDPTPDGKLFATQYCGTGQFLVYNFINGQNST
UniProt Q5T035: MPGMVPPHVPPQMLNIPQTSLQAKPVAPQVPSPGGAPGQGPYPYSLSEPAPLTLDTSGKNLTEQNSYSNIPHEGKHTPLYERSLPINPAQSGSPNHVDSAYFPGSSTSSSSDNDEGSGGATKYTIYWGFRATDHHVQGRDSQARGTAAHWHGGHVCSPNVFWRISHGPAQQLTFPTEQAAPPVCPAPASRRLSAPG
UniProt Q4G176: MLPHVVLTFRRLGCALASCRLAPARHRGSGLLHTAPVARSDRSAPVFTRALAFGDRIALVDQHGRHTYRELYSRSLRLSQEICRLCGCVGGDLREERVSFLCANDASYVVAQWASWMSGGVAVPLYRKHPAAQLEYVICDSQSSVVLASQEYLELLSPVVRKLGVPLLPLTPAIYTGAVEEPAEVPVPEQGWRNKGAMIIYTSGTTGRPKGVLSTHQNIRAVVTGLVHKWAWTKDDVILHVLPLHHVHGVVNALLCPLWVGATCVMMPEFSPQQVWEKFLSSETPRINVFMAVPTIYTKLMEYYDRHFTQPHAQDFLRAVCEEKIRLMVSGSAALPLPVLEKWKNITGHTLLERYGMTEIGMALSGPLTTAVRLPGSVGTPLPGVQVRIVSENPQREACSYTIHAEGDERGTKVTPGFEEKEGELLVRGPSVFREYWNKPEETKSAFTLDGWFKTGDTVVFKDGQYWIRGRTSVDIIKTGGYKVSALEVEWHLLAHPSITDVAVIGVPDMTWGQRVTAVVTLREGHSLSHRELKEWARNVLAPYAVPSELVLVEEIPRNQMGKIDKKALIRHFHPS
UniProt Q5BKX5: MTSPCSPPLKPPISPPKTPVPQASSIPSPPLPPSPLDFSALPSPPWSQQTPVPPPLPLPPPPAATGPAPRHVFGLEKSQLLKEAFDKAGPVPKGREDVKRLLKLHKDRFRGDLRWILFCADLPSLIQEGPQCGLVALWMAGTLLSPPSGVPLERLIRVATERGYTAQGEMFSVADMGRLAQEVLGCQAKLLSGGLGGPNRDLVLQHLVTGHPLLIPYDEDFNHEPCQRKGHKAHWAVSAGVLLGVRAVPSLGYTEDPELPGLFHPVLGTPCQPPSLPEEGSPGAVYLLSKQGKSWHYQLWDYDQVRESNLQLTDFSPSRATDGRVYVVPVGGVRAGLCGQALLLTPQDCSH
UniProt Q58WW2: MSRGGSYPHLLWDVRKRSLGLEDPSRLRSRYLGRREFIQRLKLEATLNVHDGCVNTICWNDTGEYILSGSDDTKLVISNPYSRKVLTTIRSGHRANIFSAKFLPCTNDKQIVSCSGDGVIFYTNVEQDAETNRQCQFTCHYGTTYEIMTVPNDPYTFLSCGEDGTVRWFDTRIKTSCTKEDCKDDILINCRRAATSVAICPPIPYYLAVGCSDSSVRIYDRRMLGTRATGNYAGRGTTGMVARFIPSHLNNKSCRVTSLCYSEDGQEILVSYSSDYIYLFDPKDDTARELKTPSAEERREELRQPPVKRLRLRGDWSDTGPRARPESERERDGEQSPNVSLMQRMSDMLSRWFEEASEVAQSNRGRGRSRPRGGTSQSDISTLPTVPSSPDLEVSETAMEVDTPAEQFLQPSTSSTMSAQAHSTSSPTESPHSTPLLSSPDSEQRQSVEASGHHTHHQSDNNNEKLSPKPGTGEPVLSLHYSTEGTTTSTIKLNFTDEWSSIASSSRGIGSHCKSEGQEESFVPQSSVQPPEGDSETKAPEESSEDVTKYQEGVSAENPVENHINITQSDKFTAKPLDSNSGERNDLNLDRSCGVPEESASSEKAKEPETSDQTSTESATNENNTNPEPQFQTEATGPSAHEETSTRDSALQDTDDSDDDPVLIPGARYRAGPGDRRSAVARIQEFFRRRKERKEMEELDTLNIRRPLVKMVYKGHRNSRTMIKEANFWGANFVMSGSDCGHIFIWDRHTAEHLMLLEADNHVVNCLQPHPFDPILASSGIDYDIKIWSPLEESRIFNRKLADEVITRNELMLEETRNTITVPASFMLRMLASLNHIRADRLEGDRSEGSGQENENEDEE
UniProt Q5JTW2: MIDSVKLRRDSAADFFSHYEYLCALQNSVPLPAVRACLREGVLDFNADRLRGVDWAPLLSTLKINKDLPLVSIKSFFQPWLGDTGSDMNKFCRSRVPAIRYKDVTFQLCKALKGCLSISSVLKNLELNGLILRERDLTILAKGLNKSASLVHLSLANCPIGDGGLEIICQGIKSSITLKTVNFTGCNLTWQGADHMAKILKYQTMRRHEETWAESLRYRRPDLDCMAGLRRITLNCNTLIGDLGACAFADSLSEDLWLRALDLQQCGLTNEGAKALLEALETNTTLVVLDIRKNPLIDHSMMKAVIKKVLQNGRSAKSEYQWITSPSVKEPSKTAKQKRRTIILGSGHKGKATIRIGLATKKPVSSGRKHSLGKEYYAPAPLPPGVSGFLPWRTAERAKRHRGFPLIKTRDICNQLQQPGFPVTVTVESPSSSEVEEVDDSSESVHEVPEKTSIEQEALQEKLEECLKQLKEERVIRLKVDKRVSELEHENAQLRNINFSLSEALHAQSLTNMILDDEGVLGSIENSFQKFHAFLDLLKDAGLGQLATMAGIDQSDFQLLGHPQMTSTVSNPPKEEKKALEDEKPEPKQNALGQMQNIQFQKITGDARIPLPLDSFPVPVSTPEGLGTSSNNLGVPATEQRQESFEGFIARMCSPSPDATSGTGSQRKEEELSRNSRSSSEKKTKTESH
UniProt Q5TBB1: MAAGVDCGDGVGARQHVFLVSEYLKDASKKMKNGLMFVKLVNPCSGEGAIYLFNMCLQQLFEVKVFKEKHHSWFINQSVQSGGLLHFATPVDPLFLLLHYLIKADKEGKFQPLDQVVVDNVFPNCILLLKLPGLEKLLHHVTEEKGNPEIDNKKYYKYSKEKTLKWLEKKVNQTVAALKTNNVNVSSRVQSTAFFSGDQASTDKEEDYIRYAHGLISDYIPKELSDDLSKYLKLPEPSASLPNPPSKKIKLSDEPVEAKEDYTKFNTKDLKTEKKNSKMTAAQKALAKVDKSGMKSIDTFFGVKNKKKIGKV
UniProt Q5T4F4: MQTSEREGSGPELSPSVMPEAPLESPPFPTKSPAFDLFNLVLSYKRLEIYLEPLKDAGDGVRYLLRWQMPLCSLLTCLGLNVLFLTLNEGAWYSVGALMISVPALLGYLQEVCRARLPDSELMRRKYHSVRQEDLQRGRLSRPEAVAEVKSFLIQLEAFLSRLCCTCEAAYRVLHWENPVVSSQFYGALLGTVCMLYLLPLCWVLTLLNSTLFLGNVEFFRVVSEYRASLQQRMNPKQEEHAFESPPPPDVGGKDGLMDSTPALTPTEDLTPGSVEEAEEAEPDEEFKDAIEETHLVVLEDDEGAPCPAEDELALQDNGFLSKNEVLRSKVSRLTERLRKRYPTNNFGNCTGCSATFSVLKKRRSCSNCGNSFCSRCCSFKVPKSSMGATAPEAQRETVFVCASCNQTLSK
UniProt Q5T6C5: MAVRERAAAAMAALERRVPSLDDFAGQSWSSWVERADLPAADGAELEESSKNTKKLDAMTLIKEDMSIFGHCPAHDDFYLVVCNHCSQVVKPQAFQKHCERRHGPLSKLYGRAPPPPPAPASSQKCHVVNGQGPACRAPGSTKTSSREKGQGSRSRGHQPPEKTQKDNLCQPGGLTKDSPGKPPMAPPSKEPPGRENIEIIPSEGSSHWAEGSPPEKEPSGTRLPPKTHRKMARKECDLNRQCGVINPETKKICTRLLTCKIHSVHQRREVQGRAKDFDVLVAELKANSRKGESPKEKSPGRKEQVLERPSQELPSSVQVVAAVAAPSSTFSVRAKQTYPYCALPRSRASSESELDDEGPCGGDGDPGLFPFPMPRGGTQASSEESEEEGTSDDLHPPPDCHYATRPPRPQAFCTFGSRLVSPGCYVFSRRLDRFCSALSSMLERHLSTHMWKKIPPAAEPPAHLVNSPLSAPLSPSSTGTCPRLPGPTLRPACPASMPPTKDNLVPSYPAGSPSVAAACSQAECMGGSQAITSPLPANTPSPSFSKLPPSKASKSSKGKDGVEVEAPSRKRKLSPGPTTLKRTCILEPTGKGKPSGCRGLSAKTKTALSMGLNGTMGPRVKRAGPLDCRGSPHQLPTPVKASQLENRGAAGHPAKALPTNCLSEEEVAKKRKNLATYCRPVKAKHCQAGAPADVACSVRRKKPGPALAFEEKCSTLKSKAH
UniProt Q56UQ5: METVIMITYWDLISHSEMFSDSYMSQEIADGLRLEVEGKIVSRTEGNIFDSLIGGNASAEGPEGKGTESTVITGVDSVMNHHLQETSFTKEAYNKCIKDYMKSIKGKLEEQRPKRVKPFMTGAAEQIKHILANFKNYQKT
UniProt Q5M775: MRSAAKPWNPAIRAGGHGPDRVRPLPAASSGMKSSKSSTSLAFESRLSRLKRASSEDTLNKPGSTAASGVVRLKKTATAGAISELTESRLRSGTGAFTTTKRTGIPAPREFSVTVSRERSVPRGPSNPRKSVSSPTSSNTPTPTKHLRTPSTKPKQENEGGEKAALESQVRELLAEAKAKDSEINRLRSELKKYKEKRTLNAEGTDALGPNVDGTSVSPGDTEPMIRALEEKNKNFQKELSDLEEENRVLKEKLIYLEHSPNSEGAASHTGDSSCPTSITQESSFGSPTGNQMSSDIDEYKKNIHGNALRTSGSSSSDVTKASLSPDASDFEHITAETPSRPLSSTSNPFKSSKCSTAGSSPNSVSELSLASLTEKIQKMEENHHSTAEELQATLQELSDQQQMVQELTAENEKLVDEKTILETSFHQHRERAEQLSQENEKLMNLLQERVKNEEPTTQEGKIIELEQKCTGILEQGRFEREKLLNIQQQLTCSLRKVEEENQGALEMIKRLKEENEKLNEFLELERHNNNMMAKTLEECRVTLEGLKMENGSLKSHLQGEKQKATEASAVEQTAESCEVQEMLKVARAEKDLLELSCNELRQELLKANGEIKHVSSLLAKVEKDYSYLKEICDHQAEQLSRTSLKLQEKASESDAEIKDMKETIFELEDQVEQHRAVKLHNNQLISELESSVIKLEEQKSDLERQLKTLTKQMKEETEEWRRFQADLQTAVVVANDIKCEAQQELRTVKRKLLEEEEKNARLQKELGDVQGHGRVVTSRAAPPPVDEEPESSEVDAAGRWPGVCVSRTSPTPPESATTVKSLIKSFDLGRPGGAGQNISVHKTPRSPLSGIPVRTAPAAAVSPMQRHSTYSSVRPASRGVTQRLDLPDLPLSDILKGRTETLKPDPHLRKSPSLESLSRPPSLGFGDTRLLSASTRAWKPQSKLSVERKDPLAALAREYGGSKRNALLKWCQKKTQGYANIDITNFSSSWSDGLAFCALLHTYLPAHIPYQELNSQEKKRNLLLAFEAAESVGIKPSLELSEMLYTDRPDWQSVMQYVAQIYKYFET

What follows are targets tested with Cc1nc(Nc2ncc(C(=O)Nc3c(C)cccc3Cl)s2)cc(N2CCN(CCO)CC2)n1 [dasatinib] (assay: log2 fold change of tryptic peptide abundance, ligand vs vehicle (limited proteolysis) (log2 ratio); higher = more trypsin-susceptible (destabilized)). Conditions: ligand concentration: 5 uM; sample: K562 cleared lysate.
With “FUT11 (peptide sequence: HIPVDSYGKCLQNR, peptide start residue: 234) (UniProt Q495W5)” the log2 fold change was -0.372.
Work on “SETMAR (peptide sequence: SDSNYIIAIR, peptide start residue: 188) (UniProt Q53H47)” yielded a log2 fold change of -0.793.
“ATPAF1 (peptide sequence: SDPAAFESR, peptide start residue: 90) (UniProt Q5TC12)” gave a log2 fold change of 0.13.
Target “UniProt Q5FWF5 (peptide sequence: ETNQDVQCNR, peptide start residue: 355)” has a log2 fold change of 0.406.
Target “ERMARD (peptide sequence: LEDNSETNACHSLITK, peptide start residue: 466) (UniProt Q5T6L9)” has a log2 fold change of -0.384.
Target “WDR81 (peptide sequence: SLVLDWVHGR, peptide start residue: 347) (UniProt Q562E7)” has a log2 fold change of 0.376.
Target “CCDC88A (peptide sequence: TQQMNNDLEKLTHELEK, peptide start residue: 918) (UniProt Q3V6T2)” has a log2 fold change of 0.642.
With “UniProt Q5T035 (peptide sequence: NLTEQNSYSNIPHEGK, peptide start residue: 411)” the log2 fold change was 0.0747.
“UniProt Q53HC9 (peptide sequence: FLVGTQSLK, peptide start residue: 30)” gave a log2 fold change of -0.164.
Work on “ACSF3 (peptide sequence: EACSYTIHAEGDER, peptide start residue: 397) (UniProt Q4G176)” yielded a log2 fold change of -0.231.
For “C19orf54 (peptide sequence: LLSGGLGGPNR, peptide start residue: 190) (UniProt Q5BKX5)”, the log2 fold change was 0.286.
“UniProt Q5T1R4 (peptide sequence: SNEEYVYVR, peptide start residue: 2073)” was tested, and the log2 fold change was -0.0268.
With “UniProt Q58WW2 (peptide sequence: GDWSDTGPR, peptide start residue: 314)” the log2 fold change was 0.153.
For “ACTBL2 (peptide sequence: IWYHTFYNELR, peptide start residue: 86) (UniProt Q562R1)”, the log2 fold change was -0.0609.
In the case of “CEP78 (peptide sequence: HEETWAESLR, peptide start residue: 208) (UniProt Q5JTW2)”, the log2 fold change is reported as -0.477.
For “UniProt Q5JNZ5 (peptide sequence: PAGAAPRPPPKPM, peptide start residue: 103)”, the log2 fold change was 0.377.
“UniProt Q5FWF6 (peptide sequence: SLLLGHER, peptide start residue: 186)” gave a log2 fold change of 0.395.
Work on “GON4L (peptide sequence: CCEEIQPHQWKPPIER, peptide start residue: 896) (UniProt Q3T8J9)” yielded a log2 fold change of 0.146.
“MRPL2 (peptide sequence: TKYTITPVK, peptide start residue: 70) (UniProt Q5T653)” was tested, and the log2 fold change was -0.119.
“RNASEH2B (peptide sequence: LSDEPVEAKEDYTK, peptide start residue: 251) (UniProt Q5TBB1)” gave a log2 fold change of 0.0792.
“ZFYVE27 (peptide sequence: SSMGATAPEAQR, peptide start residue: 385) (UniProt Q5T4F4)” was tested, and the log2 fold change was -0.00408.
“EARS2 (peptide sequence: DVLNPVYVER, peptide start residue: 392) (UniProt Q5JPH6)” showed a log2 fold change of 0.328.
For “GLE1 (peptide sequence: LYAAIIQLR, peptide start residue: 576) (UniProt Q53GS7)”, the log2 fold change was 0.257.
In the case of “ARHGAP21 (peptide sequence: TQSPHSPKEESER, peptide start residue: 1094) (UniProt Q5T5U3)”, the log2 fold change is reported as -0.194.
“HERC4 (peptide sequence: ENIVGDAMEVLRK, peptide start residue: 716) (UniProt Q5GLZ8)” showed a log2 fold change of -0.237.
With “PRR16 (peptide sequence: LTPVKCEDPKR, peptide start residue: 129) (UniProt Q569H4)” the log2 fold change was 0.314.
Target “ATXN7L2 (peptide sequence: APPPPPAPASSQK, peptide start residue: 113) (UniProt Q5T6C5)” has a log2 fold change of 0.348.
“ERCC6L2 (peptide sequence: EHQGELFGIHNLFK, peptide start residue: 684) (UniProt Q5T890)” was tested, and the log2 fold change was -0.493.
Target “PLCH1 (peptide sequence: VISGQQLPK, peptide start residue: 635) (UniProt Q4KWH8)” has a log2 fold change of -0.0177.
Target “UniProt Q5JUX0 (peptide sequence: ISDTHLAEIMVGK, peptide start residue: 119)” has a log2 fold change of 0.355.
“USP39 (peptide sequence: EREPEAASSR, peptide start residue: 35) (UniProt Q53GS9)” was tested, and the log2 fold change was 0.307.
Target “UniProt Q5M9Q1 (peptide sequence: ENQIYSADEK, peptide start residue: 370)” has a log2 fold change of -0.182.
Target “UniProt Q4ADV7 (peptide sequence: TPEQTSPR, peptide start residue: 1366)” has a log2 fold change of -0.251.
“VARS2 (peptide sequence: VTPAHSPADAEMGAR, peptide start residue: 393) (UniProt Q5ST30)” was tested, and the log2 fold change was -1.26.
In the case of “UniProt Q56UQ5 (peptide sequence: VKPFMTGAAEQIK, peptide start residue: 111)”, the log2 fold change is reported as 0.125.
“SPECC1 (peptide sequence: VKNEEPTTQEGK, peptide start residue: 451) (UniProt Q5M775)” was tested, and the log2 fold change was -0.974.
Target “UniProt Q5TF39 (peptide sequence: HSIIETSR, peptide start residue: 465)” has a log2 fold change of 0.124.
